Test results: the supplement of paper PMC10849652
The other results are listed elsewhere or left out.

Chains of the proteins cited; added tags and fusions are not shown. Lines headed by an entry give the natural chain unless they say otherwise; changes in a name come on top.
UniProt Q9BQC3: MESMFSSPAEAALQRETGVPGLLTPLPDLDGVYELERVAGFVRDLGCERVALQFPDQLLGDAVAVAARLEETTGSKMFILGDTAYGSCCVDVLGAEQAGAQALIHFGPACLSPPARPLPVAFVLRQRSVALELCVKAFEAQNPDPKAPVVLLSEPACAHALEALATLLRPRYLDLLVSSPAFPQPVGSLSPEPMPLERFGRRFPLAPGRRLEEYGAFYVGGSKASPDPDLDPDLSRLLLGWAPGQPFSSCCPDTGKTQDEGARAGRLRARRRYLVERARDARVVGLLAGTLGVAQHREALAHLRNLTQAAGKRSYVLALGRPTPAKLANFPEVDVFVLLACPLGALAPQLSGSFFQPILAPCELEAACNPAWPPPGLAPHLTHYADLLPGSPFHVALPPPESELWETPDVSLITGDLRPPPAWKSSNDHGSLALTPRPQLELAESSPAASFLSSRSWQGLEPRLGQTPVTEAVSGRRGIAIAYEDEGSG
UniProt O75937: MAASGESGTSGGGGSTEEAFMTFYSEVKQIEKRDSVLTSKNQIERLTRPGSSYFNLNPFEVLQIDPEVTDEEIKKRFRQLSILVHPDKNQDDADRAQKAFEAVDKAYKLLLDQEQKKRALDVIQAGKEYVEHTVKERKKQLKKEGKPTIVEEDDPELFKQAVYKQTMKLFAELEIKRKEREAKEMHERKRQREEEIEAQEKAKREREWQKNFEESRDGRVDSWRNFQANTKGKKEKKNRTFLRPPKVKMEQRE
UniProt Q9BQ95: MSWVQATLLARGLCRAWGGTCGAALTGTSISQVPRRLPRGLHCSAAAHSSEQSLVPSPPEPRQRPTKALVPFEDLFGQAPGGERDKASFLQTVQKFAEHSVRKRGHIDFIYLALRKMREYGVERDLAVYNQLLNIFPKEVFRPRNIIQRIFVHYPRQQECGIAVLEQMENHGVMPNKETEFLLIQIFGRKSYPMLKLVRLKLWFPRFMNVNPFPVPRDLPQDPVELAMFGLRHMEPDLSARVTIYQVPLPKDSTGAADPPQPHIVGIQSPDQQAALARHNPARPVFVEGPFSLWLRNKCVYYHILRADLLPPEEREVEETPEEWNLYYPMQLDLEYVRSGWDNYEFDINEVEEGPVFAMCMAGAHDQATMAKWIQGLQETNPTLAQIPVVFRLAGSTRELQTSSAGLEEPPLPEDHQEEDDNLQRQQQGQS
UniProt Q8WWZ3: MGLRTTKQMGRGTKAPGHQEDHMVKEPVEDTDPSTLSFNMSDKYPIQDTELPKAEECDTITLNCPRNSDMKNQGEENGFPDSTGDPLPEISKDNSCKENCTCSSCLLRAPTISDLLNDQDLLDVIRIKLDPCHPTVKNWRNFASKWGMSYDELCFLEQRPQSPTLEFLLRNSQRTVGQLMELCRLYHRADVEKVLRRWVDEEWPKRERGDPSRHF
UniProt P60981: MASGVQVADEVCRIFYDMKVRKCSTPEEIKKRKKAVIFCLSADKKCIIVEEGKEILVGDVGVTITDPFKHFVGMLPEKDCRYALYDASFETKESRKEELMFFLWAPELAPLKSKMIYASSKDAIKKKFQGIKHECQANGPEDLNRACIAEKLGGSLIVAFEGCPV
UniProt Q5F1R6: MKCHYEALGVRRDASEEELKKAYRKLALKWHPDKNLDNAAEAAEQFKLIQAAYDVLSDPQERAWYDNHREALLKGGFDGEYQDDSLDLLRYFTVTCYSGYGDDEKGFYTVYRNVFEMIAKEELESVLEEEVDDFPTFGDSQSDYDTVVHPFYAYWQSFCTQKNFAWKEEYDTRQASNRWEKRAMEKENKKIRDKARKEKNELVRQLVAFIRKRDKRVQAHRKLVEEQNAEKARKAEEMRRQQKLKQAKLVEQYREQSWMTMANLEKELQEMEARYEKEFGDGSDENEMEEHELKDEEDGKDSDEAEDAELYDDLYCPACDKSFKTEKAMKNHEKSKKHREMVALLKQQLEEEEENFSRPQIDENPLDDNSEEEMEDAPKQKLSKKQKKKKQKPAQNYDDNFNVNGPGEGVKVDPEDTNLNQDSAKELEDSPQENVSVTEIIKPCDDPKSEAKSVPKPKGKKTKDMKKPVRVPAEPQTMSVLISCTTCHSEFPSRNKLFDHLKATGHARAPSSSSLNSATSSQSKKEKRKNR
UniProt O00429, whole entry, looked up: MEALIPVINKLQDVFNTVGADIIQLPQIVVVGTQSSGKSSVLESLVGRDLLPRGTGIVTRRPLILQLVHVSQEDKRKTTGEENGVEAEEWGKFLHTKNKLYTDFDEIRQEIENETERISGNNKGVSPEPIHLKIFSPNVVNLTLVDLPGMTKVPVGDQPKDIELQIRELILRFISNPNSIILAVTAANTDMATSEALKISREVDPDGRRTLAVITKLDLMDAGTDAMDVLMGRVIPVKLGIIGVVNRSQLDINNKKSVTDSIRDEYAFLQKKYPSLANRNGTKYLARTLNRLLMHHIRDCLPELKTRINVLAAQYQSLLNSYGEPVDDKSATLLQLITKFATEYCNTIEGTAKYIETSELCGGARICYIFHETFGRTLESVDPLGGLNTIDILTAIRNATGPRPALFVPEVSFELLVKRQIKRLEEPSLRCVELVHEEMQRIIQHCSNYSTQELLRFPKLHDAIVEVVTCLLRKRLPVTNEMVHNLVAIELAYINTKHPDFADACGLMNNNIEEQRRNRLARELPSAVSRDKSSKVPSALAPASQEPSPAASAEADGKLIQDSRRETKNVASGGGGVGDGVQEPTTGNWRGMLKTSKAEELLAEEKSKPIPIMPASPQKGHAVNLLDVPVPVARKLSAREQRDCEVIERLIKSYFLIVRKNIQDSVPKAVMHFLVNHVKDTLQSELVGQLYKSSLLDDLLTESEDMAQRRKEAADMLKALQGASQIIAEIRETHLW
UniProt P30084: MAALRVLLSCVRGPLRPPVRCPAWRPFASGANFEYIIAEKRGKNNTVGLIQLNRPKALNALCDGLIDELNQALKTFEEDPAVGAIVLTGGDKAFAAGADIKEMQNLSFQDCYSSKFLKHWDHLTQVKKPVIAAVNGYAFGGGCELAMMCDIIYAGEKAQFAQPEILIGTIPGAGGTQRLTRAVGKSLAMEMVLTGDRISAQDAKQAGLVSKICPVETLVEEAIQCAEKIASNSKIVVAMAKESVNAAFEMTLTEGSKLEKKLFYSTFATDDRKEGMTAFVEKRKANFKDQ
UniProt Q9UBS4: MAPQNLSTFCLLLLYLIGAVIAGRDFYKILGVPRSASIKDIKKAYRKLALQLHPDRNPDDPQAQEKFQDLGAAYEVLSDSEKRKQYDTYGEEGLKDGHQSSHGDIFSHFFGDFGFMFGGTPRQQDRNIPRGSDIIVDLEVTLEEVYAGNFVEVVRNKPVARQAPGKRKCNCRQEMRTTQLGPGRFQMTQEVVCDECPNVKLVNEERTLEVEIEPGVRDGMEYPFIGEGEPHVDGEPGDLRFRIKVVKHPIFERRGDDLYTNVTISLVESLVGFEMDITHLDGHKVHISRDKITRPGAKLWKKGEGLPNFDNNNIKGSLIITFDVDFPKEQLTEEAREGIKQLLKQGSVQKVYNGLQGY
UniProt Q5JSL3: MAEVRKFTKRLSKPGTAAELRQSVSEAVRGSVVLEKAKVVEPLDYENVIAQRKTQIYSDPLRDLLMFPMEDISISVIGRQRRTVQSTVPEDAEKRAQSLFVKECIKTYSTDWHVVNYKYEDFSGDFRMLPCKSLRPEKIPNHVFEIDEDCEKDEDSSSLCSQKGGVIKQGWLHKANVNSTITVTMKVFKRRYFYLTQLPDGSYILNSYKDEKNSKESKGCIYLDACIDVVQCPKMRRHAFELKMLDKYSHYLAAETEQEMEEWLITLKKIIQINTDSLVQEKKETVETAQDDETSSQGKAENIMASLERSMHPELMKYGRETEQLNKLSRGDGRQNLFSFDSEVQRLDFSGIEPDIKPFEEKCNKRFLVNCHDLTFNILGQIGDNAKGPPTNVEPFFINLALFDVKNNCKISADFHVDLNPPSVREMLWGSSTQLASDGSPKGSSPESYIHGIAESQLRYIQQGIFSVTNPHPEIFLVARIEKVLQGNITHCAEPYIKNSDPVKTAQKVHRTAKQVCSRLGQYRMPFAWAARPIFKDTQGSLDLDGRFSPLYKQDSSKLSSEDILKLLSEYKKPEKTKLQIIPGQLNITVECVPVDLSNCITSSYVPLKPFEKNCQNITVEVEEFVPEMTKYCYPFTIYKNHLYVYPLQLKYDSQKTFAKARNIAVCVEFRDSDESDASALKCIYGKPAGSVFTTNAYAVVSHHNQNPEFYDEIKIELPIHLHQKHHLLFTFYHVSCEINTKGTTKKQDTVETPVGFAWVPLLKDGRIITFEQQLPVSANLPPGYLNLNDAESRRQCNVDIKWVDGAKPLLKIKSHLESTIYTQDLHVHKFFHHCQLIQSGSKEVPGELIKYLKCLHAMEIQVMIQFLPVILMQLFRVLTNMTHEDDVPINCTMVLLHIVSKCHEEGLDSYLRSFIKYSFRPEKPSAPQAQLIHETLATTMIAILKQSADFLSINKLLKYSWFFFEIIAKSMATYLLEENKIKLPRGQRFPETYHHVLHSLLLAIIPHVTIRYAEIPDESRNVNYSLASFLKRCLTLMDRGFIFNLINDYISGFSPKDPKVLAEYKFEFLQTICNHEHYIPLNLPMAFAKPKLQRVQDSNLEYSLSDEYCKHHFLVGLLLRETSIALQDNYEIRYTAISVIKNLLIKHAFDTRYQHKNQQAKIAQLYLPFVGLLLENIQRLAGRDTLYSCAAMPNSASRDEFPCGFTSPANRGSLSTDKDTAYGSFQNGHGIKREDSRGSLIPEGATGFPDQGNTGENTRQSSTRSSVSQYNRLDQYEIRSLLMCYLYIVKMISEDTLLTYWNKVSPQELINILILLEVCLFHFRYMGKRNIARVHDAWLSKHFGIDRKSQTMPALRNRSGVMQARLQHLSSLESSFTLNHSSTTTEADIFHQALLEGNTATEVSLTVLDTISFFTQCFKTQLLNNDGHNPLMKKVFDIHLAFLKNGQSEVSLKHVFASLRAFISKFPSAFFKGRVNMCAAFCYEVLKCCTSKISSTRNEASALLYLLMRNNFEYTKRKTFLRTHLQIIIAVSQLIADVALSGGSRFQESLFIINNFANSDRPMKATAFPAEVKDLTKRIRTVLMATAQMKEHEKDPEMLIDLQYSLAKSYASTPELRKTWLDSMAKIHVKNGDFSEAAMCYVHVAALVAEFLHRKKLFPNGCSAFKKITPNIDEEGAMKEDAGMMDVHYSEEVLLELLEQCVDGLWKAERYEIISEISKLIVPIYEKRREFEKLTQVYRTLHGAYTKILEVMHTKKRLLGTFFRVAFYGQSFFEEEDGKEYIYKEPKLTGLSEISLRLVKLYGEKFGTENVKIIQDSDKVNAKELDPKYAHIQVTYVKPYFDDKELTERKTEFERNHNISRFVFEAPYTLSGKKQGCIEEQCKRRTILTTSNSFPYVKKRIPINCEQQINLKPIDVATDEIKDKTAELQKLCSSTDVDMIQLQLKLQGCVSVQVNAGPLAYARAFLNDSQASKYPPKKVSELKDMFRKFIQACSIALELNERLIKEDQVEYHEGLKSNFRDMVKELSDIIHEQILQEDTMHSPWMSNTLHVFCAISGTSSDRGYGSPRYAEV
UniProt Q86TI2: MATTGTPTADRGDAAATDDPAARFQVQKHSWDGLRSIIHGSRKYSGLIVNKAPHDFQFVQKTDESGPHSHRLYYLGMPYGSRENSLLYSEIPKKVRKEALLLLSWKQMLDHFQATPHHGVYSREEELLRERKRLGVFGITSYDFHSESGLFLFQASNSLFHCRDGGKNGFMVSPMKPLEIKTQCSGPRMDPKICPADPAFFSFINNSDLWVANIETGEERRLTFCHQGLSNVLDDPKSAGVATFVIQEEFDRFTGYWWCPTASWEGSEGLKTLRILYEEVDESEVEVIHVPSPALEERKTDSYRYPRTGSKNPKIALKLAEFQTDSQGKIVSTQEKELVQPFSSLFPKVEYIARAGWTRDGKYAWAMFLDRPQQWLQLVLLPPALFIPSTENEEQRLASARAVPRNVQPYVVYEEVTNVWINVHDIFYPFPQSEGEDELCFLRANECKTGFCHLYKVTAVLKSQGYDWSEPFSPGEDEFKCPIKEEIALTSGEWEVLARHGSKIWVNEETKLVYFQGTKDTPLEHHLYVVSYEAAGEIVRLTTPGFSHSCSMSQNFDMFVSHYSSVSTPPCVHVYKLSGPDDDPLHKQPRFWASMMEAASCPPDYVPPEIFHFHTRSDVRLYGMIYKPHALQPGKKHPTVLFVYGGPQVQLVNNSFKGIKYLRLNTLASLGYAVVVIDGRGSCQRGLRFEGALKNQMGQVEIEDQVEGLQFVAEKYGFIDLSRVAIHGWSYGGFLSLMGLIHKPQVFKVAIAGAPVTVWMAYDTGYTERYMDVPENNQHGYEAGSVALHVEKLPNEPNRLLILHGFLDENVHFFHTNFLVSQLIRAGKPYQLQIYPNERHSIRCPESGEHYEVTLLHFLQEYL
UniProt P51452: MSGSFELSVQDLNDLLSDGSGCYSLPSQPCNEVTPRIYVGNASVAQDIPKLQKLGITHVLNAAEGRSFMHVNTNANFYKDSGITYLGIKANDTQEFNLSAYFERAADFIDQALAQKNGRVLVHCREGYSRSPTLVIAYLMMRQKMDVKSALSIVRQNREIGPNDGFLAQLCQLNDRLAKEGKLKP

Each target was assayed with CC[C@H](C)N1C=C(C2=C(C=C(C=C21)C3=CN=C(C=C3)N4CCNCC4)C(=O)NCC5=C(C=C(NC5=O)C)C)C (assay: log2 fold change, soluble protein after heating vs DMSO (PISA); higher = thermal stabilisation; K562 cells, 10 uM, 30 min; active = over 0.2 and 3.5 SD of the protein, either way, in both replicates (recomputed)).
In short: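 K562 cells at 2×10^6 cells/mL were treated with 10 μM compound for 30 min. Aliquots were heated for 3 min across 48°C-58°C, pooled, and extracted in PBS with 0.5% NP-40 at 4°C; soluble protein was the supernatant after 21,000xg for 90 min. Soluble protein was quantified by TMTpro 16plex LC-MS/MS with channel sums equalised, and reported as log2 fold change in thermal stability against DMSO controls, with values from duplicates.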

log2 fold change, inactive:
DPH2 (UniProt Q9BQC3) 0.038, DPY19L4 (UniProt Q7Z388) 0.025, DNAJC8 (UniProt O75937) 0.034, ECSIT (UniProt Q9BQ95) 0.008, EDARADD (UniProt Q8WWZ3) -0.032, DSTN (UniProt P60981) 0.053, ECI2 (UniProt O75521) -0.008, DSC2 (UniProt Q02487) 0.149, DNAJA3 (UniProt Q96EY1) 0.122, DNAJC21 isoform 3 (UniProt Q5F1R6) 0.051, DYNC1LI1 (UniProt Q9Y6G9) 0.006, DNM1L isoform 6 (UniProt O00429) 0, ECHS1 (UniProt P30084) 0.052, DNAJB11 (UniProt Q9UBS4) -0.036, EDEM1 (UniProt Q92611) -0.014, DYNLRB1 (UniProt Q9NP97) -0.016, DOCK11 (UniProt Q5JSL3) 0.051, DUSP23 (UniProt Q9BVJ7) 0.015, ECM1 isoform 4 (UniProt Q16610) -0.018, DPP3 (UniProt Q9NY33) 0.066, DPP9 isoform 2 (UniProt Q86TI2) 0.072, DNAJC12 (UniProt Q9UKB3) -0.04, DUSP3 (UniProt P51452) -0.063
